Assay results taken from PubChem BioAssay AID547 (Emory University Molecular Libraries Screening Center, 2006).
This list holds what a sample rich in hits left over. The source made the active and inactive calls. No rule for the calls is given here.

biological target: Chaperone protein DnaK (Escherichia coli (strain K12)) (UniProt P0A6Y8); experiment: blockers of bacterial DnaK function – luminescence, E. coli K12, primary screen (AID 547); conditions: DnaK chaperone assay, luminescence read-out; active compounds read low;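 also: tested at 10 µM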

| Structure (SMILES) | luminescence |
| --- | --- |
| COc1ccc2cc([C@H](C)C(=O)O)ccc2c1 | inactive: 2.6e+06 cps |
